Assay results as given in article PMC8124945.
These are yes or no findings as the source states them, for the method shown. A result given as binding can be weak or reduced; the word gives no strength. Tags and fused reporters may be left off the sequences shown. For some assays here: In cells and extracts the contact can be indirect.

Columns and labels:
[1] = target: T1, Full-length AtC3H59 fused to the C-terminal region of YFP (Arabidopsis thaliana) (UniProt Q9FKR9); assay: split reporter; BiFC with split YFP, transient expression in Arabidopsis protoplasts; YFP signals in the nucleus
T1 sequence: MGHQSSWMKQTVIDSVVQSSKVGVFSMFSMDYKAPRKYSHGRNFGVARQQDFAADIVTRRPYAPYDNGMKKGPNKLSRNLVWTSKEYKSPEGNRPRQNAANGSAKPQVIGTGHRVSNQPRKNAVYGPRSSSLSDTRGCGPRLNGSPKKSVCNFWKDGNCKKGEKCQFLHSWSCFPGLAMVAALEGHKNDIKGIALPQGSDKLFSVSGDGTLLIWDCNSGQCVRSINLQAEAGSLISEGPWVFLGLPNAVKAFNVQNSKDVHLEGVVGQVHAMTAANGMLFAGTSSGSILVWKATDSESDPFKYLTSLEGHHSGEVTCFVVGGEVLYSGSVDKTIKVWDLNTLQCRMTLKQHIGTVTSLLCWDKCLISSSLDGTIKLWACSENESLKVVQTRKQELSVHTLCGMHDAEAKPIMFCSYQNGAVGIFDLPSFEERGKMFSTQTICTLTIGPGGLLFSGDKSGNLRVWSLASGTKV

[2] = target: T2, GAL4 BD-fused full-length AtC3H59/ZFWD3 (Arabidopsis thaliana) (UniProt Q9FKR9); assay: two-hybrid; GAL4 BD fusions (pBD-GAL4) and GAL4 AD fusions (pGADT7) co-transformed into yeast strain YD116 (GAL1::URA3, UAS_GAL4::lacZ); growth on SM-Trp/-Leu/-Ura at 30 °C and quantitative β-galactosidase ONPG assay
T2 sequence: T1 sequence

Row | Substance | binding [1] | binding [2]
1 | Full-length Desi1 fused to the N-terminal region of YFP (Arabidopsis thaliana) | binds | 
2 | GAL4 AD-fused full-length Desi1 (Arabidopsis thaliana) |  | binds
